Here are results for one substance from PMC8537625.

Sequences of proteins named here, by UniProt entry; tags and fusion partners are left off. Residues count along the entry.
UniProt Q7Z434, whole entry: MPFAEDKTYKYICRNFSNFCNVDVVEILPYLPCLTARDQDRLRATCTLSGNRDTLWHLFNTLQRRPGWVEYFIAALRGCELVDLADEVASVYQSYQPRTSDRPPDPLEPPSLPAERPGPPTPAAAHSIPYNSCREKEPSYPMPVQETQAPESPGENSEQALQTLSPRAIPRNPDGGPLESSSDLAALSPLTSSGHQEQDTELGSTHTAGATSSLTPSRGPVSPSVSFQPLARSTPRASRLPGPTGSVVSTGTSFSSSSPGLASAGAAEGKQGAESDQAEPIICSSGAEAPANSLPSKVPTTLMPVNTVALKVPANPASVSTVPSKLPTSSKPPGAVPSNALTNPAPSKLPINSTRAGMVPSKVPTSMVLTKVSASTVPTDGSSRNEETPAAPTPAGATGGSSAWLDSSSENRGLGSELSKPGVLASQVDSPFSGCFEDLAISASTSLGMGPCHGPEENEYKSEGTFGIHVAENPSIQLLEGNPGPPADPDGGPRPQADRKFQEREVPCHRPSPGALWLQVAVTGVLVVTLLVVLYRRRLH
UniProt P03496, 1-73: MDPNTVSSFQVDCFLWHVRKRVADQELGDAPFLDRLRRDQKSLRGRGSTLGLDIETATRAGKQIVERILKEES

These are yes or no findings as the source states them, for the method shown. In cells and extracts the contact can be indirect. Some entries that bind do so weakly or less than the wild type.

The experiment has as its target HA-tagged wild-type MAVS (human) (UniProt Q7Z434). The experiment can be described thus: co-IP.

On to “truncated NS1 N ([change]–230) (from UniProt P03496 1-73) (domain or fragment)”, for which the binding entry was “binds”.
